Residue numbers refer to the chain shown, from its start. No constants are given. Whether binding was seen depends on the method and setting. Some entries that bind do so weakly or less than the wild type.
B1: 17C2.1 (antibody, V domains shown)
VH: QVQLVQSGAEVKKPGASVKVSCKASGYSFTSYGISWVRQAPGQGLEWMGWVSAYNGNTNYAQKFQGRVTMTTDTSTSTAYMELRSLRSDDTAVYYCARGYVMDVWGQGTTVTVSS
VL: QSALTQPASVFGSPGQSITISCTGTSSDVGAYNSVSWYQQHPGKAPKRMIYEVSNRPSGVSNRFSGSKSGNTASLTISGLQAEDEADYYCSSYTSTNMVFGGGTKLTVL
B2: 26E10.1 (antibody, V domains shown)
VH: B1 VH with S28T, F29L, A53F, F64L, V68G, T74P, V101G
VL: B1 VL with F11S, A31G, R48L, S61F, S91N, N97S

Protein sequences, listed by entry. Tags and fused reporters are not part of them. Lines headed by an entry give the natural chain unless they say otherwise; changes in a name come on top.
UniProt Q8NBP7: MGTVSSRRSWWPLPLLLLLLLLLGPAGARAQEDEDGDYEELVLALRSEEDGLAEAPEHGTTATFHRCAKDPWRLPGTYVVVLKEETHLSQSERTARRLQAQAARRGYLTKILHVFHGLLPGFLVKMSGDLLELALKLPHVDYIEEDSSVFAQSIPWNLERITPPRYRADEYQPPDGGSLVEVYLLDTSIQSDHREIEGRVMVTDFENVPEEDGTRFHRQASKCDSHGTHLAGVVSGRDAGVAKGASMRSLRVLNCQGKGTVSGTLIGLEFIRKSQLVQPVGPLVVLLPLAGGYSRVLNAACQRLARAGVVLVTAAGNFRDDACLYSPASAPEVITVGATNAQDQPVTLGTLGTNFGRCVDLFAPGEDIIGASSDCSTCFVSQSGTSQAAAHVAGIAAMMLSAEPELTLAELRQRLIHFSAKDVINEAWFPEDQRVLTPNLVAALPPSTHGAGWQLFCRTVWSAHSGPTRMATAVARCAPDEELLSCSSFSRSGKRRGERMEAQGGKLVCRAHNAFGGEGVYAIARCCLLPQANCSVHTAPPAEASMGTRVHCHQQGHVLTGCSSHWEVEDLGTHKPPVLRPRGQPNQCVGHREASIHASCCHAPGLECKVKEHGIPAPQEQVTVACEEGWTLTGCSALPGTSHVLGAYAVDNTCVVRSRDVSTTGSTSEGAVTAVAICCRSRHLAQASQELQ

Target: PCSK9 ProCat (31-449 of SEQ ID NO: 3) (human) (UniProt Q8NBP7)
Assay: domain binding ELISA (coated antibody captures the PCSK9 form; OD650)

Row | Binder | binding
1 | B1 | binds
2 | B2 | binds
